Laboratory results from paper PMC12541299.
Where two headings read alike, the source gives them in different places. These are yes or no findings as the source states them, for the method shown. In cells and extracts the contact can be indirect. These calls come from enrichment with a bait or labelling near it, and not all partners need be listed. Values belong to the molecule of their own block, whether it stands above or below them.

By UniProt entry, the sequences of proteins in these tests, tags left out.
UniProt P61224: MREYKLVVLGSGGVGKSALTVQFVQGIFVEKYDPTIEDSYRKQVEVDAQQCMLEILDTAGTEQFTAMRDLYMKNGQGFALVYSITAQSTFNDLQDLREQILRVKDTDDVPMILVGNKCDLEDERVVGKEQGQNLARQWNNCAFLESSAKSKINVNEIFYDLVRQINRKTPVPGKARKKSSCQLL
UniProt Q14160: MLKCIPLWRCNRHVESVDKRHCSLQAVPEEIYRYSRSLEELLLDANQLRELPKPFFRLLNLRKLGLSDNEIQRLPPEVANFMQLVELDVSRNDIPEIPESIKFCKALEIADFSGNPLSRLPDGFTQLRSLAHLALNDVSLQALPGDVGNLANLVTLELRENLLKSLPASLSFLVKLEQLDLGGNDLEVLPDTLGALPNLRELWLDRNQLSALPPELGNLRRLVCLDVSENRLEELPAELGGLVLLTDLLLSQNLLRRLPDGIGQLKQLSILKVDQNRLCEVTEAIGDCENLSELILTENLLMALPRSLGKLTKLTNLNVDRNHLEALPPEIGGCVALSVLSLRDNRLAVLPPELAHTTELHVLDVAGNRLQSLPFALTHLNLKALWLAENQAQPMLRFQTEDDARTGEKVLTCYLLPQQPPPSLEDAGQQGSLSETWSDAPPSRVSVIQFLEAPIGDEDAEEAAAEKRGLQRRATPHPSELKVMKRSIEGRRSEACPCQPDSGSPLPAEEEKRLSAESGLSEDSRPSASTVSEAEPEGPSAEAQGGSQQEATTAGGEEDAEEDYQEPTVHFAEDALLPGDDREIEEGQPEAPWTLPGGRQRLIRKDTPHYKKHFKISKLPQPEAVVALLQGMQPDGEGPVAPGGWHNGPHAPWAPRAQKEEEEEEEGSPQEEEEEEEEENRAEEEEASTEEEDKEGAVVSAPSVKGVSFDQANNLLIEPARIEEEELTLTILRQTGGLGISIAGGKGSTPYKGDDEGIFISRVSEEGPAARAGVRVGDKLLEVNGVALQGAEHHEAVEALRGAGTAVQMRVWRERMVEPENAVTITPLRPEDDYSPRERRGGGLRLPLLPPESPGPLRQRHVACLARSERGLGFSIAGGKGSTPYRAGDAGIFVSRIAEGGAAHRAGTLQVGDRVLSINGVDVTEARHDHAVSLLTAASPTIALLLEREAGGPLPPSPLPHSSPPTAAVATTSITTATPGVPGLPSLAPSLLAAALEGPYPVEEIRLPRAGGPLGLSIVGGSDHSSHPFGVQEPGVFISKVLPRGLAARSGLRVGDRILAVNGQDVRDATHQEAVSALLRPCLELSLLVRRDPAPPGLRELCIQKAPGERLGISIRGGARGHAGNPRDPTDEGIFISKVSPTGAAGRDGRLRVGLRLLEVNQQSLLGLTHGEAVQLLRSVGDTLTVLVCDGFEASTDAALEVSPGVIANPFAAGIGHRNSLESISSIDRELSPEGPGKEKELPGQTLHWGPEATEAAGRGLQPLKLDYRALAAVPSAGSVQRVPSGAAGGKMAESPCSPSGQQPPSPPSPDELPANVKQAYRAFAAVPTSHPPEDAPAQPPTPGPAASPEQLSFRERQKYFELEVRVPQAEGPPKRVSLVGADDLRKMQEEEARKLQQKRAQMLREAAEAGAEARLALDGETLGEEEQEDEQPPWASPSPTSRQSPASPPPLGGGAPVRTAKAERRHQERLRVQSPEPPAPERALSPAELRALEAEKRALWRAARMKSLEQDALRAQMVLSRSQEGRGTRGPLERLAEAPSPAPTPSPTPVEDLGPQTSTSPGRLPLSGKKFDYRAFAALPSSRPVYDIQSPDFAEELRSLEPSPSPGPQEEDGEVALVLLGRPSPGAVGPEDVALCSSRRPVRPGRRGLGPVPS
UniProt O75396: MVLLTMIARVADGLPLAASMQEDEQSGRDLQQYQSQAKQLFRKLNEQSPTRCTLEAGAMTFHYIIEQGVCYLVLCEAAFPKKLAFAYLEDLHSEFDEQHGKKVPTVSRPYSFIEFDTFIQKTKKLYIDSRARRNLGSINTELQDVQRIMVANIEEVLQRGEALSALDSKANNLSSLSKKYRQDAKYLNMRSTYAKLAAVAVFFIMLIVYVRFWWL
UniProt Q9HAV4: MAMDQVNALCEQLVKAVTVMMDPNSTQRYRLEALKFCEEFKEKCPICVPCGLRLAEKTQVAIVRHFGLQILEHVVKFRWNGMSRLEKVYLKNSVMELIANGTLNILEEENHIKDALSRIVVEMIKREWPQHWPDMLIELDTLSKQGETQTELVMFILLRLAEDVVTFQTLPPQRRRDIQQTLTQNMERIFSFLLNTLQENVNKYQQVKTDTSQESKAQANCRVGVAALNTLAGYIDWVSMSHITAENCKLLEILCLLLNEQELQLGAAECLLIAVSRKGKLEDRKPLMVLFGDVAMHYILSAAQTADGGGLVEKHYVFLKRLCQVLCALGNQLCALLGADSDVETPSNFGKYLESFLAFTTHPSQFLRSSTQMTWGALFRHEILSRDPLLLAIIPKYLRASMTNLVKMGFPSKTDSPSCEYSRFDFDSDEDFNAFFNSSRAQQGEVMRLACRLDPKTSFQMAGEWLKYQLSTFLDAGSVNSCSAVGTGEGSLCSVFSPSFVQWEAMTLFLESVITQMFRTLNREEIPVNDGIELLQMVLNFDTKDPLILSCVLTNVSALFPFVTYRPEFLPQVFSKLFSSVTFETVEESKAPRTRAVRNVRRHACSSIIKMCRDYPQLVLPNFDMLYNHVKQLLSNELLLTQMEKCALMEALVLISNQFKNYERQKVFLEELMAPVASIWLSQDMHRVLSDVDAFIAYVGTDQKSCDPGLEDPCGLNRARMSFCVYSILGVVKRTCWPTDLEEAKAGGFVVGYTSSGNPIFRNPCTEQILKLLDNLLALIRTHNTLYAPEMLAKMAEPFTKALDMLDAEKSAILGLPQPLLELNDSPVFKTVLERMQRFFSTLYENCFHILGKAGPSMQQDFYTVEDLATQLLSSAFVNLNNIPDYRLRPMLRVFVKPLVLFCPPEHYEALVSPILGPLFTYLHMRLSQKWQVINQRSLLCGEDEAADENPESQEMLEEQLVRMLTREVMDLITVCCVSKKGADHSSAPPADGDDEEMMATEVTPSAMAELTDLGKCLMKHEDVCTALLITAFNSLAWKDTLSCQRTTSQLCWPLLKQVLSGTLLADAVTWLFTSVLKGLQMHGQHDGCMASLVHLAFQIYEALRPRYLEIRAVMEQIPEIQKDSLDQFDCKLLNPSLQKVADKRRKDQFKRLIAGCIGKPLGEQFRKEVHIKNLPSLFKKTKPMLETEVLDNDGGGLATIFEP

How the values were obtained:
Assay in all cases: proximity labelling; TurboID (BioID): HA-TurboID-KRAS induced with doxycycline in HPNE cells, 50 umol/L biotin for 1 hour at 37°C, lysis in 8 mol/L urea, streptavidin beads, LC/MS-MS with LFQ intensities, compared with TurboID alone; biological triplicate
[1] = target: HA-TurboID-KRAS^Q61L (human) (UniProt P01116)
[2] = target: HA-TurboID-KRAS^G12D (human) (UniProt P01116)
[3] = target: HA-TurboID-KRAS^Q61L (human) (UniProt P01116); remark: listed apart in the source

binding [1]: binds
Molecule: RAP1B (from UniProt P61224 1-184)

binding [1]: binds
binding [2]: binds
Molecule: SCRIB (from UniProt Q14160 1-1655)

binding [1]: binds
Molecule: SEC22B (from UniProt O75396 1-215)

binding [1]: binds
Molecule: XPO5 (from UniProt Q9HAV4 1-1204)

binding [3]: binds
B1: SRPRB (protein, UniProt Q9Y5M8 1-271)
chain: MASADSRRVADGGGAGGTFQPYLDTLRQELQQTDPTLLSVVVAVLAVLLTLVFWKLIRSRRSSQRAVLLVGLCDSGKTLLFVRLLTGLYRDTQTSITDSCAVYRVNNNRGNSLTLIDLPGHESLRLQFLERFKSSARAIVFVVDSAAFQREVKDVAEFLYQVLIDSMGLKNTPSFLIACNKQDIAMAKSAKLIQQQLEKELNTLRVTRSAAPSTLDSSSTAPAQLGKKGKEFEFSQLPLKVEFLECSAKGGRGDVGSADIQDLEKWLAKIA

binding [3]: binds
B2: UACA (protein, UniProt Q9BZF9 1-1416)
chain: MKSLKSRLRRQDVPGPASSGAAAASAHAADWNKYDDRLMKAAERGDVEKVTSILAKKGVNPGKLDVEGRSVFHVVTSKGNLECLNAILIHGVDITTSDTAGRNALHLAAKYGHALCLQKLLQYNCPTEHADLQGRTALHDAAMADCPSSIQLLCDHGASVNAKDVDGRTPLVLATQMSRPTICQLLIDRGADVNSRDKQNRTALMLGCEYGCRDAVEVLIKNGADISLLDALGHDSSYYARIGDNLDILTLLKTASENTNKGRELWKKGPSLQQRNLTHMQDEVNVKSHQREHQNIQDLEIENEDLKERLRKIQQEQRILLDKVNGLQLQLNEEVMVADDLESEREKLKSLLAAKEKQHEESLRTIEALKNRFKYFESDHLGSGSHFSNRKEDMLLKQGQMYMADSQCTSPGIPAHMQSRSMLRPLELSLPSQTSYSENEILKKELEAMRTFCESAKQDRLKLQNELAHKVAECKALALECERVKEDSDEQIKQLEDALKDVQKRMYESEGKVKQMQTHFLALKEHLTSEAASGNHRLTEELKDQLKDLKVKYEGASAEVGKLRNQIKQNEMIVEEFKRDEGKLIEENKRLQKELSMCEMEREKKGRKVTEMEGQAKELSAKLALSIPAEKFENMKSSLSNEVNEKAKKLVEMEREHEKSLSEIRQLKRELENVKAKLAQHVKPEEHEQVKSRLEQKSGELGKKITELTLKNQTLQKEIEKVYLDNKLLKEQAHNLTIEMKNHYVPLKVSEDMKKSHDAIIDDLNRKLLDVTQKYTEKKLEMEKLLLENDSLSKDVSRLETVFVPPEKHEKEIIALKSNIVELKKQLSELKKKCGEDQEKIHALTSENTNLKKMMSNQYVPVKTHEEVKMTLNDTLAKTNRELLDVKKKFEDINQEFVKIKDKNEILKRNLENTQNQIKAEYISLAEHEAKMSSLSQSMRKVQDSNAEILANYRKGQEEIVTLHAEIKAQKKELDTIQECIKVKYAPIVSFEECERKFKATEKELKDQLSEQTQKYSVSEEEVKKNKQENDKLKKEIFTLQKDLRDKTVLIEKSHEMERALSRKTDELNKQLKDLSQKYTEVKNVKEKLVEENAKQTSEILAVQNLLQKQHVPLEQVEALKKSLNGTIENLKEELKSMQRCYEKEQQTVTKLHQLLENQKNSSVPLAEHLQIKEAFEKEVGIIKASLREKEEESQNKMEEVSKLQSEVQNTKQALKKLETREVVDLSKYKATKSDLETQISSLNEKLANLNRKYEEVCEEVLHAKKKEISAKDEKELLHFSIEQEIKDQKERCDKSLTTITELQRRIQESAKQIEAKDNKITELLNDVERLKQALNGLSQLTYTSGNPTKRQSQLIDTLQHQVKSLEQQLADADRQHQEVIAIYRTHLLSAAQGHMDEDVQEALLQIIQMRQGLVC
